# Percent effect of library compounds

By UniProt entry, the sequences of proteins in these tests, tags left out. Residues count along the entry.
UniProt P9WNZ1, whole entry: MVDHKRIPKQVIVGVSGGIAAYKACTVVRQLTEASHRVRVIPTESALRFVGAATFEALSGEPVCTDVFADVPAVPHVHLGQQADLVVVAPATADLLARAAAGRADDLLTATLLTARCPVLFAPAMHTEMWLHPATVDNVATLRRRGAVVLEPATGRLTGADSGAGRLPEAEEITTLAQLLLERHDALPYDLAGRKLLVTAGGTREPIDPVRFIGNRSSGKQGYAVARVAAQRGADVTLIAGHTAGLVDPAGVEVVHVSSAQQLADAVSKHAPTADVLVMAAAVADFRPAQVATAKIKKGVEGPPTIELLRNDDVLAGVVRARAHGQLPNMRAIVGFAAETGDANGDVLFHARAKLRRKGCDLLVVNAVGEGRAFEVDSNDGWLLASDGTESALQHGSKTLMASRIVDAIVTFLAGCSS
UniProt I6X8D2, whole entry: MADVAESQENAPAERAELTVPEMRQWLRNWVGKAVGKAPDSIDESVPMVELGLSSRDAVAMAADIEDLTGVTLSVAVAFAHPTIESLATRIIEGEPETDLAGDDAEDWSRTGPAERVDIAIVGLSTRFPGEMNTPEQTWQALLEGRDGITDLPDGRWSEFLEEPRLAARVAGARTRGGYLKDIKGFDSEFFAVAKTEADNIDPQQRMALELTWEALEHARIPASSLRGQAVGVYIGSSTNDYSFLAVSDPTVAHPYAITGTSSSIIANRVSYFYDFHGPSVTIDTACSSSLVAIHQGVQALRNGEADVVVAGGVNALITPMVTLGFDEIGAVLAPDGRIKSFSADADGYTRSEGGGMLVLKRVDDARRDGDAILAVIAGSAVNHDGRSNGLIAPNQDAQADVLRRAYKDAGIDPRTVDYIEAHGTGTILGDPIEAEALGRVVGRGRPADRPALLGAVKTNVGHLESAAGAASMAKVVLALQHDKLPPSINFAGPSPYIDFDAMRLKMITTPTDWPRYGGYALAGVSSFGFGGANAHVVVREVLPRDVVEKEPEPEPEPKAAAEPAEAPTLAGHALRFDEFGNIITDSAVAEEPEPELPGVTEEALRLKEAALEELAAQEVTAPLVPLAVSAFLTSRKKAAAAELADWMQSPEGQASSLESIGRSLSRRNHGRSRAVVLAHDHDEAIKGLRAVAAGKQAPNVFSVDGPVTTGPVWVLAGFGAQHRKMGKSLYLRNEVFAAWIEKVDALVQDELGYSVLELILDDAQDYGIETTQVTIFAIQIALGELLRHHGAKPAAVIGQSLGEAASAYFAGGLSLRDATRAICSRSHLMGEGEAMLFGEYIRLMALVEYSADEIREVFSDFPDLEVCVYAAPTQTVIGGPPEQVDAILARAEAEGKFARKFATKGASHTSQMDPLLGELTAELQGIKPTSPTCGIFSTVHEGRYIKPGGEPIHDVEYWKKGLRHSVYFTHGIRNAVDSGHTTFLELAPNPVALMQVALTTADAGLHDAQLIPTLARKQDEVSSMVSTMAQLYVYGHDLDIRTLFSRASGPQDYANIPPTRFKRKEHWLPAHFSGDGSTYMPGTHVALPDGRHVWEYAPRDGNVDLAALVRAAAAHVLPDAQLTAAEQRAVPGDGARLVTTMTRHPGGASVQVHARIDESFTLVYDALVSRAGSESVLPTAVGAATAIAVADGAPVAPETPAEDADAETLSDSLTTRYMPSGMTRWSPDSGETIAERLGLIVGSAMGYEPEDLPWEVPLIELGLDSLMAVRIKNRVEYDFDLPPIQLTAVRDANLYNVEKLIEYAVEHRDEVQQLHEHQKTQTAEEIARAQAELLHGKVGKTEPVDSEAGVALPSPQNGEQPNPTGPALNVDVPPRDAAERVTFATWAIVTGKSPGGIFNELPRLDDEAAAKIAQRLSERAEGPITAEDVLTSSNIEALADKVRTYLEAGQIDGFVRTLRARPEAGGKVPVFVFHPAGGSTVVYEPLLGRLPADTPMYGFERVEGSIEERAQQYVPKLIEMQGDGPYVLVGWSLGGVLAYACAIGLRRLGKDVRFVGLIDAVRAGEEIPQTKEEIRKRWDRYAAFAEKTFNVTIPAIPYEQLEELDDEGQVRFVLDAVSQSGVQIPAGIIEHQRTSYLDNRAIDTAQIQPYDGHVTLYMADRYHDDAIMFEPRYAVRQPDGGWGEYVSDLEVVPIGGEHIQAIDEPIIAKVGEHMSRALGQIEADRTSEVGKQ
UniProt P9WPC5, whole entry: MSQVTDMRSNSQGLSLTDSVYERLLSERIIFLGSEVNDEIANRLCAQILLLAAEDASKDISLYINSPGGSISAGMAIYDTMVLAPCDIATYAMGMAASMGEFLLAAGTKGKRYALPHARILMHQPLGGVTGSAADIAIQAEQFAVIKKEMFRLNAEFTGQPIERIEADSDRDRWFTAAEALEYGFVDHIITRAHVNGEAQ
UniProt P9WPC3, whole entry partner: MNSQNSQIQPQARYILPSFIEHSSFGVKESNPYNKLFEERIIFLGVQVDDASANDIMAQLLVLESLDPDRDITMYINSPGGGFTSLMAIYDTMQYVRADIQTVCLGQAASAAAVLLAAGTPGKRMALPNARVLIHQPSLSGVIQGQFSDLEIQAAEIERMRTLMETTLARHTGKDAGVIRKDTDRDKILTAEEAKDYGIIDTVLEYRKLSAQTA
UniProt Q4DA54, 1-478: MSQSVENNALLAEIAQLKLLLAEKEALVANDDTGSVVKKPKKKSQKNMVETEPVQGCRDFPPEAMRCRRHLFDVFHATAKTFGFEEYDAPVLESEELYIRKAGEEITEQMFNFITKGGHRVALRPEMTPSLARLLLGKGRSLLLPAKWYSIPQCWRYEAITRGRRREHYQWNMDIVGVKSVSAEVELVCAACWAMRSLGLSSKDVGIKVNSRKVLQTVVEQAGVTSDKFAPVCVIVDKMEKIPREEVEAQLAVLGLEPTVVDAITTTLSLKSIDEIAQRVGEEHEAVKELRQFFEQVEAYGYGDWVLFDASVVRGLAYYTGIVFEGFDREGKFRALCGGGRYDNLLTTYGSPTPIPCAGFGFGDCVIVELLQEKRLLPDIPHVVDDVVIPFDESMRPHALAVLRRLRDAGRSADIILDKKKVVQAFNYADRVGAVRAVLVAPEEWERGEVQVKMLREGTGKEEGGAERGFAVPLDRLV

Source: ChEMBL document CHEMBL3988442, “University of Dundee, Small-Polar-MMV Screening Library” (2021).

Values are the deposited “Percent Effect”, in %.
The controls that fix the scale are not given in the record; negative values are as filed.
This is an unselected part of the compounds tested.
Two or more numbers in one place are separate tests of the same structure; such repeats can differ widely.
A dash means the value is not listed here; it may have been measured.

CoaBC: 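Coenzyme A biosynthesis protein CoaBC, Mycobacterium tuberculosis (UniProt P9WNZ1). Enzyme assay of CoaBC with a phosphate dye (Biomol Green) read at 650 nm. Concentration: 30 µM. Higher reads as stronger inhibition, judged from the few compounds that gave an IC50. Most strong results did not repeat in a second test. About 67,000 compounds were tested under these conditions; 0.06% (about 40) showed 50% or more at least once.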
Leishmania in macrophages: 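Cell assay of Leishmania donovani living inside macrophages; the read-out is not stated. Concentration: 30 µM. Higher reads as stronger inhibition (inferred: compounds with an IC50 in retests scored well above the rest). Size under these conditions: about 69,000 compounds, about 1,000 of them at 50% or above in at least one test.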
Pks13 thioesterase: 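Polyketide synthase Pks13, Mycobacterium tuberculosis (UniProt I6X8D2). Enzyme assay of the thioesterase domain of polyketide synthase 13; the read-out is not stated. Tested at 30 µM. The record gives no direction; the compounds picked for IC50 retests had high values, so higher reads as stronger inhibition. About 67,000 compounds were tested under these conditions; 0.46% (about 300) showed 50% or more at least once.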
ClpP1P2: 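Protease assay of ClpP1P2, read by the AMC dye that it sets free. Target: ClpP1P2, Mycobacterium tuberculosis (UniProt P9WPC5 and UniProt P9WPC3). Compounds at 50 µM. Higher reads as stronger inhibition, judged from the few compounds that gave an IC50. Most other retested compounds had strongly negative values. Size under these conditions: about 69,000 compounds, about 10 of them at 50% or above in at least one test.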
TcHisRS: 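Enzyme assay of histidyl-tRNA synthetase; the read-out is not stated. Target: Histidine-tRNA ligase, Trypanosoma cruzi CL Brener (UniProt Q4DA54). Tested at 30 µM. The record gives no direction; compounds that gave an IC50 in retests scored well above the rest, so higher reads as stronger inhibition. About 69,000 compounds were tested under these conditions; 0.045% (about 31) showed 50% or more at least once.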

compound	CoaBC	Leishmania in macrophages	Pks13 thioesterase	ClpP1P2	TcHisRS
CN1CCCC(c2cncc(C(=O)NCc3ccccc3Cl)n2)C1 (configuration not stated)	8.625	-	-7.351	-8.546	10.15
COc1cccc2c1OCC(CNC(=O)Cc1c(C)nc(N)nc1C)C2 (configuration not stated)	6.075	18.48	-22.43	1.572	3.261
CNC(=O)C(C)CN(C)C(=O)Nc1ccc(F)c(-n2cccc2)c1 (configuration not stated)	-0.7968	-0.9292	-17.49	-5.085	5.263
c1cnc(NCc2n[nH]c3c2CCN(Cc2cccnc2)C3)nc1	-	18.16	-26.91	-3.577	7.362
CC(=O)c1cc(CC(=O)N2CCN(CCOc3ccccc3)CC2)cs1	2.037	-2.833	-13.35	1.399	1.587
COc1ccc(Cl)cc1C(=O)N1CCCC(c2cc(C)[nH]n2)C1 (configuration not stated)	1.048	9.894	-7.327	-26.71	6.105
CS(=O)(=O)c1cn[nH]c1C1CCCCN1C(=O)c1cncs1 (configuration not stated)	6.083	8.467 and 20.81	-14.12	2.542	3.731
Cc1noc(C)c1CN(C)Cc1csc(-c2ncccn2)n1	6.329	4.438	-16.42	-0.3351	-3.448
CN1[C@H](Cn2cccn2)C[C@@H]2CN(C(=O)Cc3cccs3)CC[C@@H]21	-2.66	-	-1.932	16.11	6.767
O=C(O)c1ccn(-c2ccccc2NC(=O)c2ccccc2Cl)n1	-8.151	12.57	-16.19	-2.941	4.762
Cc1cccc2c1cnn2CCCNC(=O)C1CC1	0.9238	-57.04	-7.184	14.98	2.609
CCC1CCC(N(Cc2cc(=O)n(C)c(=O)n2C)C2CC2)CC1 (configuration not stated)	2.39	27.04	5.729	-12.44	4.211
COc1cccc(-c2noc(C3CCN(Cc4cccs4)C3)n2)c1 (configuration not stated)	2.749	-	23.98	-0.3737	7.527
CCn1ncc2c(C(F)F)cc(-c3ccn(C)n3)nc21	5.312	40.78	-31.37	-14.54	-6.087
CCc1cc(C(=O)N2CCCC2c2nc(O)cc(CC)n2)on1 (configuration not stated)	0	-6.622 and 20.25	-2.083	-4.304	1.111
O=C(NCC1CCOC1)c1ccc(OCC(F)(F)F)nc1 (configuration not stated)	4.663	26.65	-8.26	13.42	3.817
O=C1NC2(CCc3ccccc31)CCN(C(=O)c1cccnc1)C2 (configuration not stated)	-2.392	23.11	0.6221	-1.883	3.448
CC(C)c1nc(C2CCCN2c2cnc3cc(F)c(F)cc3n2)no1 (configuration not stated)	14.26	-66.35	-15.68	-35.84	4.762
CC(NS(=O)(=O)CC1(C#N)CCCC1)c1cccc(-n2cccn2)c1 (configuration not stated)	10.89	-1.5	2.053	-11.59	-1.961
O=C(O)C(F)(F)F.[H][C@]12CC[C@@]3(N=C(CC)N(CC)C3=O)[C@@]1([H])CN(Cc1ccccc1F)C2	-	25.98	-	-	-
CCNC(=O)C1CCN(c2nc(-c3ccco3)nc3c2CCNCC3)C1 (configuration not stated)	-26.82	25.48	-11.02	2.746	3.784
Fc1ccc(OCCCN2CCOC(Cn3cncn3)C2)cc1 (configuration not stated)	2.35	22.53	-	-1.408	3.383
[H][C@]12CN(C(=O)c3cnccc3C)C[C@@]1(C(=O)O)CN(c1ncccn1)C2	-	24.8	-	-	-
Cc1ccc(CN2CCC3(CCCN(S(C)(=O)=O)C3)C2)o1 (configuration not stated)	2.349	-2.419	-7.831	-7.368	8.163
Cc1cc(C)c2c(c1)C(CC(=O)O)C(=O)N2 (configuration not stated)	2.733	12.49	-2.41	-14.82	-3.59
O=C(Nc1ccc(OC(F)F)cc1)N1CCC(c2nnc[nH]2)CC1	3.719	4.178	-	-5.845	2.717
CCc1cnc(N2CC3(CCN(S(=O)(=O)C4CC4)C3)C2)nc1	4.187	-4.717	-14.41	-4.05	4.124
[H][C@]12CC[C@@]3(N=C(C)N(CC)C3=O)[C@@]1([H])CN(C(=O)Nc1ccc(F)cc1)C2	-	19.49	-	-	-
CCc1ccc(CN2CCC(c3ccccc3C(=O)O)C2)nc1 (configuration not stated)	9.288	21.32	0.2492	0.9587	14.9
O=C(Nc1ccccc1)C1=NOC2(CCCNC2)C1 (configuration not stated)	-10.39	12.06	-4.305	20.16	-6.897
O=C(O)C(F)(F)F.O=C(O)C(F)(F)F.c1cncc(-c2ncnc3c2CCN(Cc2cccs2)CC3)c1	-	-14.25	-	-	-
CN(C)C[C@@H]1CCC[C@@H]2CN(c3cccnc3)C[C@@H]21	4.071	-	-20.91	6.784	9.709
O=C(O)C(F)(F)F.[H][C@]12CCCN(CC3CC3)[C@@]1([H])CN(C(=O)c1ccco1)C2	-	17.19	-	-	-
CCc1nn(C)c2[nH]nc(NC(=O)c3cccnc3OCC(C)C)c12	1.152	-33.92	3.659	-0.7443	5.521
[H][C@@]12CN(Cc3ccc(S(C)(=O)=O)cc3)C[C@]1([H])OCC(=O)N2CC(N)=O	-	20.34	-	-	-
CCN(CC)C(=O)CCNc1cncc(-n2nc(C)cc2C)n1	-4.405	14.06	10.21	-159.8	0.8475
CCCN(C(=O)COCC)c1cccc(C)c1	3.259	1.465	-8.757	-5.737	5.82
O=c1[nH]c(CN2CCCC(Cn3cncn3)C2)nc2ccccc12 (configuration not stated)	9.091	29.18	-16.74	-41.06	6.706
CC(=O)N1CCC(n2nccc2-c2cnc(NCCO)nc2)CC1	2.771	20.99 and -12.05	-10.74	-5.278	-2.26
CCn1cc(CNc2ccc(Br)c(OC)c2)cn1	10.44	10.62	-0.4625	6.016	1.478
CC1CCCCN1C(=O)c1cn(-c2ccc(C(F)(F)F)cn2)nn1 (configuration not stated)	-8.065	5.796	-6.937	1.976	9.497
COC(=O)N1CCCC(NC(=O)NCc2ccc(C)nc2)C1 (configuration not stated)	-0.3745	33	-5.276	2.466	1.02
Cc1noc(C)c1C(=O)N[C@@H]1CC[C@@H](Oc2ccccc2)[C@@H]1O	-4.358	14.51	-4.037	-12.84	1.13
Cc1cc(C)cc(NC(=O)Nc2c(O)oc3ccccc3c2=O)c1	-1.276	13.37	8.035	4.128	3.125
Cc1ccc(C(=O)NCC(O)c2ccc(F)c(F)c2)c(=O)[nH]1 (configuration not stated)	3.415	0.6582	-7.005	-23.59	0
O=C(c1ccc2c(c1)OCO2)N1CCCC(n2cccn2)C1 (configuration not stated)	2.491	16.22	-8.744	6.119	-3.008
O=S(=O)(NCCNc1cc(-n2cccc2)ncn1)c1cccs1	6.554	5.397 and 0.8794	-33.24	-4.243	3.093
O=C(c1cnccn1)N1CCCC2(CCN(c3ncccn3)C2)C1 (configuration not stated)	-2.335	-	-9.901	-3.8	2.4
CCC(C#N)NC(=O)COC1CCCCC1 (configuration not stated)	7.131	8.099	-17.96	2.321	-1.01
CC(C)c1nc2n(n1)CC(NCc1ncc(C(C)(C)C)o1)CC2 (configuration not stated)	-1.048	-10.21	3.55	-32.78	7.849
COCC1CC2(CCN(c3cccc(C)n3)CC2)CN1c1ncccn1.O=C(O)C(F)(F)F (configuration not stated)	-	-3.372	-	-	-
CN1CCN(C(=O)Cc2ccsc2)Cc2cccnc21.O=C(O)C(F)(F)F	-	-44.17	-	-	-
COC(=O)c1ccc(N2CCC(c3ccccc3)CC2)nn1	-	10.44	-42.22	-5.219	11.84

For reference, 4 entries once more:

CN1[C@H](Cn2cccn2)C[C@@H]2CN(C(=O)Cc3cccs3)CC[C@@H]21 read CoaBC: -2.66%; Pks13 thioesterase: -1.932%; ClpP1P2: 16.11%; TcHisRS: 6.767%.
CCn1cc(CNc2ccc(Br)c(OC)c2)cn1 read CoaBC: 10.44%; Leishmania in macrophages: 10.62%; Pks13 thioesterase: -0.4625%; ClpP1P2: 6.016%; TcHisRS: 1.478%.
O=C(O)C(F)(F)F.O=C(O)C(F)(F)F.c1cncc(-c2ncnc3c2CCN(Cc2cccs2)CC3)c1 read Leishmania in macrophages: -14.25%.
Cc1cccc2c1cnn2CCCNC(=O)C1CC1 read CoaBC: 0.9238%; Leishmania in macrophages: -57.04%; Pks13 thioesterase: -7.184%; ClpP1P2: 14.98%; TcHisRS: 2.609%.